{"sequences": {"note": "Sequences of proteins named here, by UniProt entry; tags and fusion partners are left off. A change or cut given only in a name is not applied to a line headed by its entry.", "UniProt O94782": "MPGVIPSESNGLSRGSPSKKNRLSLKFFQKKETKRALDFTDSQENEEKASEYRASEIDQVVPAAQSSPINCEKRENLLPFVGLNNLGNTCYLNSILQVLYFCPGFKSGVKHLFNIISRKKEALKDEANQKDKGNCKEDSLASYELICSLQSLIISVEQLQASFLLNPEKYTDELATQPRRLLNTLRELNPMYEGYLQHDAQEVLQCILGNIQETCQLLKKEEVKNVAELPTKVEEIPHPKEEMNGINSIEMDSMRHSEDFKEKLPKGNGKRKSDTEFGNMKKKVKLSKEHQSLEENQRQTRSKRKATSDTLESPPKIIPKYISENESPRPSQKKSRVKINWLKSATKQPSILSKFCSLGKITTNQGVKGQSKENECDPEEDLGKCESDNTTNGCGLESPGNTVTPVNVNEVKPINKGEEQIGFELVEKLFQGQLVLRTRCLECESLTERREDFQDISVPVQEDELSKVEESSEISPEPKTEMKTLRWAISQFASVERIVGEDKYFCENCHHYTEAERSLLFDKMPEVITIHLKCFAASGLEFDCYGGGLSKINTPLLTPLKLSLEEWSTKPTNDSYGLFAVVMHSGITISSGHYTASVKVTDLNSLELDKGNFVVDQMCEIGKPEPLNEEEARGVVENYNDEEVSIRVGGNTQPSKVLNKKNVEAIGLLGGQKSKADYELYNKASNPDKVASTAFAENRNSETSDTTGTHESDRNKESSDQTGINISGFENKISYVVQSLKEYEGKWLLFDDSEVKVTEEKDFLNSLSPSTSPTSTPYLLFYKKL"}, "source": "PubChem BioAssay (NCATS)", "key": {"[1]": {"assay": "Quantitative High-Throughput drug screen in 47 multiple myeloma cell lines against the NCATS MIPE library collection: MM1S_ATCC cell viability assay (AID 1918980); note: nearly all actives have a fitted effect of over 45% in size", "procedure,_shortened": "(§1)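 ATP-based CellTiter-Glo luminescence after 48 h drug exposure (37 °C, 5% CO2) of 500 myeloma cells per well. DMSO-only wells set 100% viability, media-only wells 0%; MIPE 4.0 library added by pin tool.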"}, "[2]": {"assay": "Quantitative High-Throughput drug screen in 47 multiple myeloma cell lines against the NCATS MIPE library collection: H1112_PLB cell viability assay (AID 1918967)", "procedure,_shortened": "(§2)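 Approved and investigational drugs from MIPE 4.0 were added by pin tool to 500 cells per well. After 48 hours at 37C, ATP-based CellTiter-Glo luminescence indicated remaining viability.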"}, "[3]": {"assay": "Quantitative High-Throughput drug screen in 47 multiple myeloma cell lines against the NCATS MIPE library collection: MM1R_ATCC cell viability assay (AID 1918981)", "procedure,_shortened": "as §1"}, "[4]": {"molecular_target": "Ubiquitin carboxyl-terminal hydrolase 1 (Homo sapiens) (UniProt O94782)", "assay": "Inhibitors of USP1/UAF1: Pilot qHTS (AID 504865)", "procedure,_shortened": "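1nM USP1/UAF1 + cpd, 15 min RT; start w/ Ub-Rho 150nM final; kinetic FL 480/540 nm, 6 reads q60 s. Buffer 50mM HEPES pH 7.8, 0.5mM EDTA, 1mM TCEP, 0.01% Tween-20, 0.1 mg/ml BSA.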"}, "[5]": {"assay": "Quantitative High-Throughput drug screen in 47 multiple myeloma cell lines against the NCATS MIPE library collection: ARP1_JJKsccF8 cell viability assay (AID 1918928)", "conditions": "ARP1 myeloma cells viability, CellTiter-Glo ATP, 48 h; viability: at 45.8 µM (top of the series)", "procedure,_shortened": "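Each line was plated at 500 cells/well and treated 48 h with library drugs. Viability came from CellTiter-Glo luminescence relative to DMSO and cell-free medium controls.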"}, "[6]": {"assay": "qHTS of pediatric cancer cell lines to identify multiple opportunities for drug repurposing: Confirmatory screen for Rh41 cells (AID 1347123)", "procedure,_shortened": "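Cells (500-1,000/well) rested 5 h, then received compounds for 48 h; metabolically active cells were measured by CellTiter-Glo luminescence. Final concentrations spanned up to 46 µM (MIPE, 11-point) or 0.59 nM-46 µM (NPC, 8-point) in primary screens, 11-point in follow-ups.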"}, "[7]": {"assay": "Quantitative High-Throughput drug screen in 47 multiple myeloma cell lines against the NCATS MIPE library collection: Delta47_JCRB cell viability assay (AID 1918925)", "procedure,_shortened": "as §2"}, "[8]": {"assay": "qHTS to identify inhibitors of the type 1 interferon - major histocompatibility complex class I in skeletal muscle: primary screen against the NCATS Pharmaceutical Collection (AID 1347407)", "conditions": "human skeletal muscle cells, IFN-b-induced MHC-I HiBiT luminescence, 24 h", "procedure,_shortened": "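HLA-B HiBiT myoblasts, dexamethasone-free growth medium + 4 ng/ml IFN-b; compounds pinned 1 h after seeding, […] from 46 uM; 24 h, 37 C, 5% CO2; lytic HiBiT detection, 10 min RT, luminescence.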"}, "3D7": {"tested_on": "3D7", "assay": "qHTS profiling for inhibitors of Plasmodium falciparum proliferation (AID 504749)", "conditions": "P. falciparum in erythrocytes, SYBR Green DNA, 72 h; series mostly up to 28.7 µM", "procedure,_shortened": "(§3)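 SYBR Green fluorescence of parasite DNA, read after lysis and overnight dark incubation, measured growth over 72 h in erythrocyte culture at 0.3% parasitemia and 2.5% hematocrit. Data normalised to DMSO and 0.29 uM artemisinin, with plate-drift correction.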"}, "CP201": {"tested_on": "CP201", "assay": "qHTS profiling for inhibitors of Plasmodium falciparum proliferation (AID 504749)", "conditions": "P. falciparum in erythrocytes, SYBR Green DNA, 72 h; series mostly up to 28.7 µM", "procedure,_shortened": "as §3"}, "CP238": {"tested_on": "CP238", "assay": "qHTS profiling for inhibitors of Plasmodium falciparum proliferation (AID 504749)", "conditions": "P. falciparum in erythrocytes, SYBR Green DNA, 72 h; series mostly up to 28.7 µM", "procedure,_shortened": "as §3"}, "CP260": {"tested_on": "CP260", "assay": "qHTS profiling for inhibitors of Plasmodium falciparum proliferation (AID 504749)", "conditions": "P. falciparum in erythrocytes, SYBR Green DNA, 72 h; series mostly up to 28.7 µM", "procedure,_shortened": "as §3"}, "CP268": {"tested_on": "CP268", "assay": "qHTS profiling for inhibitors of Plasmodium falciparum proliferation (AID 504749)", "conditions": "P. falciparum in erythrocytes, SYBR Green DNA, 72 h; series mostly up to 28.7 µM", "procedure,_shortened": "as §3"}, "CP335": {"tested_on": "CP335", "assay": "qHTS profiling for inhibitors of Plasmodium falciparum proliferation (AID 504749)", "conditions": "P. falciparum in erythrocytes, SYBR Green DNA, 72 h; series mostly up to 28.7 µM", "procedure,_shortened": "as §3"}, "ECU": {"tested_on": "ECU", "assay": "qHTS profiling for inhibitors of Plasmodium falciparum proliferation (AID 504749)", "conditions": "P. falciparum in erythrocytes, SYBR Green DNA, 72 h; series mostly up to 28.7 µM", "procedure,_shortened": "as §3"}, "JCK": {"tested_on": "JCK", "assay": "qHTS profiling for inhibitors of Plasmodium falciparum proliferation (AID 504749)", "conditions": "P. falciparum in erythrocytes, SYBR Green DNA, 72 h; series mostly up to 28.7 µM", "procedure,_shortened": "as §3"}, "TAB113": {"tested_on": "TAB113", "assay": "qHTS profiling for inhibitors of Plasmodium falciparum proliferation (AID 504749)", "conditions": "P. falciparum in erythrocytes, SYBR Green DNA, 72 h; series mostly up to 28.7 µM", "procedure,_shortened": "as §3"}, "GB4": {"tested_on": "GB4", "assay": "qHTS profiling for inhibitors of Plasmodium falciparum proliferation (AID 504749)", "conditions": "P. falciparum in erythrocytes, SYBR Green DNA, 72 h; series mostly up to 28.7 µM", "procedure,_shortened": "as §3"}, "CP247": {"tested_on": "CP247", "assay": "qHTS profiling for inhibitors of Plasmodium falciparum proliferation (AID 504749)", "conditions": "P. falciparum in erythrocytes, SYBR Green DNA, 72 h; series mostly up to 28.7 µM", "procedure,_shortened": "as §3"}, "CP297": {"tested_on": "CP297", "assay": "qHTS profiling for inhibitors of Plasmodium falciparum proliferation (AID 504749)", "conditions": "P. falciparum in erythrocytes, SYBR Green DNA, 72 h", "procedure,_shortened": "as §3"}}, "note": "Inconclusive results, whose numbers are uncertain, are shown with a selection of clear calls. For some of these results: Where the call is inconclusive, the potency comes from a doubtful curve fit. Activity calls are given as the source filed them. Calls come from the whole dose curve; as a rule, active = well fitted curve in the direction sought with a large enough effect; inconclusive = small, poorly fitted or top-dose-only effect, or another doubt; inactive = no such curve, though single readings can be large; an effect the other way counts as inactive or inconclusive. Potency is the fitted concentration of half-maximal effect.", "data": [{"smiles": "Cc1cnc(Nc2ccc(CN3CCOCC3)cc2)nc1Nc1cccc(S(=O)(=O)NC(C)(C)C)c1", "values": [{"measurement": "Potency", "setting": "[1]", "value": "active: 5.9 µM"}]}, {"smiles": "CC(C)c1cc(C(=O)N2Cc3ccc(CN4CCN(C)CC4)cc3C2)c(O)cc1O", "values": [{"measurement": "Potency", "setting": "[2]", "value": "active: 5.26 µM"}, {"measurement": "Potency", "setting": "[3]", "value": "active: 0.418 µM"}]}, {"smiles": "CN(C)CCCn1cc(C2=C(c3c[nH]c4ccccc34)C(=O)NC2=O)c2ccccc21", "values": [{"measurement": "Potency", "setting": "[4]", "value": "active: 50.1 µM"}]}, {"smiles": "C=CCNc1c(O)cc2c(O)c1C[C@@H](C)C[C@H](OC)[C@@H](O)[C@@H](C)C=C(C)[C@H](OC(N)=O)[C@@H](OC)C=CC=C(C)C(=O)N2", "values": [{"measurement": "Potency", "setting": "[1]", "value": "active: 1.18 µM"}]}, {"smiles": "Cn1cc(-c2cnn3c(N)c(Br)c([C@H]4CCCNC4)nc23)cn1", "values": [{"measurement": "Potency", "setting": "[5]", "value": "active: 3.32 µM"}, {"measurement": "Potency", "setting": "[1]", "value": "active: 0.332 µM"}]}, {"smiles": "Cc1c(NC(=O)OC[C@@H]2COCCN2)cn2ncnc(Nc3ccc4c(cnn4Cc4cccc(F)c4)c3)c12", "values": [{"measurement": "Potency", "setting": "[6]", "value": "active: 16.5 µM"}, {"measurement": "Potency", "setting": "[7]", "value": "active: 0.833 µM"}, {"measurement": "Potency", "setting": "[5]", "value": "inconclusive: 11.8 µM [cytotoxic, partial curve]"}, {"measurement": "Potency", "setting": "[2]", "value": "inconclusive: 0.662 µM [cytotoxic, full curve]"}, {"measurement": "Potency", "setting": "[1]", "value": "inconclusive: 0.264 µM [cytotoxic, full curve]"}, {"measurement": "Potency", "setting": "[3]", "value": "inconclusive: 1.87 µM [cytotoxic, full curve]"}]}, {"smiles": "OCCN1CCN(CC/C=C2/c3ccccc3Sc3ccc(C(F)(F)F)cc32)CC1", "values": [{"measurement": "Potency", "setting": "[4]", "value": "active: 56.2 µM"}, {"measurement": "Potency", "setting": "[8]", "value": "inconclusive: 14.9 µM [inhibitor, single point]"}, {"measurement": "Potency", "setting": "3D7", "value": "active: 12.6 µM"}, {"measurement": "Potency", "setting": "CP201", "value": "active: 10.7 µM"}, {"measurement": "Potency", "setting": "CP238", "value": "inconclusive: 10 µM [inhibitor, single point]"}, {"measurement": "Potency", "setting": "CP260", "value": "active: 12.6 µM"}, {"measurement": "Potency", "setting": "CP268", "value": "active: 13.5 µM"}, {"measurement": "Potency", "setting": "CP335", "value": "active: 4.26 µM"}, {"measurement": "Potency", "setting": "ECU", "value": "active: 12.6 µM"}, {"measurement": "Potency", "setting": "JCK", "value": "inconclusive: 11.2 µM [inhibitor, partial curve]"}, {"measurement": "Potency", "setting": "TAB113", "value": "active: 11.2 µM"}]}, {"smiles": "CC(=O)c1ccc2c(c1)N(CCCN(C)C)c1ccccc1S2", "values": [{"measurement": "Potency", "setting": "GB4", "value": "inconclusive: 4.55 µM [inhibitor, partial curve]"}, {"measurement": "Potency", "setting": "JCK", "value": "inconclusive: 10 µM [inhibitor, single point]"}, {"measurement": "Potency", "setting": "TAB113", "value": "inactive"}]}, {"smiles": "Cc1ccc2c(Br)cc(Br)c(O)c2n1", "values": [{"measurement": "Potency", "setting": "3D7", "value": "inconclusive: 11.2 µM [inhibitor, single point]"}, {"measurement": "Potency", "setting": "CP201", "value": "inconclusive: 19 µM [inhibitor, single point]"}, {"measurement": "Potency", "setting": "CP238", "value": "inconclusive: 10 µM [inhibitor, single point]"}, {"measurement": "Potency", "setting": "CP247", "value": "active: 11.2 µM"}, {"measurement": "Potency", "setting": "CP260", "value": "inconclusive: 12.6 µM [inhibitor, single point]"}, {"measurement": "Potency", "setting": "CP268", "value": "inconclusive: 16.9 µM [inhibitor, single point]"}, {"measurement": "Potency", "setting": "CP297", "value": "inconclusive: 19 µM [inhibitor, single point]"}, {"measurement": "Potency", "setting": "CP335", "value": "inconclusive: 12 µM [inhibitor, single point]"}, {"measurement": "Potency", "setting": "ECU", "value": "inconclusive: 17.8 µM [inhibitor, single point]"}, {"measurement": "Potency", "setting": "GB4", "value": "inconclusive: 16.9 µM [inhibitor, single point]"}]}, {"smiles": "OCc1c[nH]c2ccccc12", "values": [{"measurement": "Potency", "setting": "[4]", "value": "inactive"}]}, {"smiles": "Cn1c2ccccc2c2c3c(c4c5ccccc5n(CCC#N)c4c21)CNC3=O", "values": [{"measurement": "Potency", "setting": "[3]", "value": "active: 1.66 µM"}]}, {"smiles": "COc1cc(-c2ccc(=O)[nH]n2)ccc1OC(F)F", "values": [{"measurement": "Potency", "setting": "[8]", "value": "inconclusive: 6.64 µM [inhibitor, partial curve, poor fit]"}, {"measurement": "Potency", "setting": "CP238", "value": "inconclusive: 0.005 µM [inhibitor, full curve]"}, {"measurement": "Potency", "setting": "CP247", "value": "inconclusive: 0.0224 µM [inhibitor, full curve, poor fit]"}, {"measurement": "Potency", "setting": "CP260", "value": "inconclusive: 126 µM [inhibitor, partial curve, poor fit]"}, {"measurement": "Potency", "setting": "CP297", "value": "inconclusive: 0.0095 µM [activator]"}, {"measurement": "Potency", "setting": "CP335", "value": "inconclusive: 0.536 µM [activator]"}, {"measurement": "Potency", "setting": "JCK", "value": "inconclusive: 8.91 µM [inhibitor, partial curve]"}]}]}
